These are yes or no findings as the source states them, for the method shown. In cells and extracts the contact can be indirect. Here binding means that the protein was enriched with, or labelled near, the bait; the list need not be complete.

Chains of the proteins cited; added tags and fusions are not shown. Lines headed by an entry give the natural chain unless they say otherwise; changes in a name come on top.
UniProt Q382V6: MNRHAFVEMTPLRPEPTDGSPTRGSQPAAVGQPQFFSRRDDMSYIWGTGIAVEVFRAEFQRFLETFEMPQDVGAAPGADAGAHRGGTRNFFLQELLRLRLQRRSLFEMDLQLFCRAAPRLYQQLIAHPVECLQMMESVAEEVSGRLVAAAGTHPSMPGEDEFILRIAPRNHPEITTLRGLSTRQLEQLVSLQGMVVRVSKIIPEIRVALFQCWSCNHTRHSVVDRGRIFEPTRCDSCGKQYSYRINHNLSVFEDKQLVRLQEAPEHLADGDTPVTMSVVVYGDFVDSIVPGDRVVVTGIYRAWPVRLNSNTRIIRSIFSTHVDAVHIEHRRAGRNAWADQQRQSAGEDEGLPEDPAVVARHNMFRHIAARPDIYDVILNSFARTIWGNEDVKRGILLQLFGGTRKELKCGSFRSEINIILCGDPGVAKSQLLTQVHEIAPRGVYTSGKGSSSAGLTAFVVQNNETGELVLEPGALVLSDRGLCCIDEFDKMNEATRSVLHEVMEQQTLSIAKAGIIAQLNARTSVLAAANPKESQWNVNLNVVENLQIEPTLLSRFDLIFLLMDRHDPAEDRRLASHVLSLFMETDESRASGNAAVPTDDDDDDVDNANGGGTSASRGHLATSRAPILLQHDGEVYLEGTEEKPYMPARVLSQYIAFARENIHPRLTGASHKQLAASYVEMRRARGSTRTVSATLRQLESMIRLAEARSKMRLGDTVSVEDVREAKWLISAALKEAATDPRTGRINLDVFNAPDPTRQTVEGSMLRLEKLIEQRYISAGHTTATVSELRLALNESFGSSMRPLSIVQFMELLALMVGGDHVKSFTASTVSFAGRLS
UniProt Q383B6: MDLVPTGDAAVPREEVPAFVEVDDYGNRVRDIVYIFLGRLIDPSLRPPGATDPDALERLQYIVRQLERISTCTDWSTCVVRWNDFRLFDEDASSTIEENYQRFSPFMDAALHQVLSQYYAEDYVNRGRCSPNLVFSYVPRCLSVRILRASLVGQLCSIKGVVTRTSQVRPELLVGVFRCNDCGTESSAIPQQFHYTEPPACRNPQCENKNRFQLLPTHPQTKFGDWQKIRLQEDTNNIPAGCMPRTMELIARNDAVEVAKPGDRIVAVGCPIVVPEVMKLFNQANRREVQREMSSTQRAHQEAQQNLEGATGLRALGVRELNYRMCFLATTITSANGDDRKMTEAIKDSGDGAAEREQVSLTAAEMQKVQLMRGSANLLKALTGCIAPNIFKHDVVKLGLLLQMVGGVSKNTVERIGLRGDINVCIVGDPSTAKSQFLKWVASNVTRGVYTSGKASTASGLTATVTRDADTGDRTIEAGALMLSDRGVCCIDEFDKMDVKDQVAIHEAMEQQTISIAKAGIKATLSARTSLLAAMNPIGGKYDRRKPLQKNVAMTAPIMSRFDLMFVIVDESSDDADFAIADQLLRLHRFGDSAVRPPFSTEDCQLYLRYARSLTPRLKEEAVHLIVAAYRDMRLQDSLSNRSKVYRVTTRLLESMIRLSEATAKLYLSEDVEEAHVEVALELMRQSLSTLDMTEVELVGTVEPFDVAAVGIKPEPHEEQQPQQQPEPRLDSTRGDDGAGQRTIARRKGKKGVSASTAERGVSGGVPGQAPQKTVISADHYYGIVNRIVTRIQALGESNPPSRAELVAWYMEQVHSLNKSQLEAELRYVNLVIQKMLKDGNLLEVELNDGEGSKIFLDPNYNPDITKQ
UniProt Q389T6: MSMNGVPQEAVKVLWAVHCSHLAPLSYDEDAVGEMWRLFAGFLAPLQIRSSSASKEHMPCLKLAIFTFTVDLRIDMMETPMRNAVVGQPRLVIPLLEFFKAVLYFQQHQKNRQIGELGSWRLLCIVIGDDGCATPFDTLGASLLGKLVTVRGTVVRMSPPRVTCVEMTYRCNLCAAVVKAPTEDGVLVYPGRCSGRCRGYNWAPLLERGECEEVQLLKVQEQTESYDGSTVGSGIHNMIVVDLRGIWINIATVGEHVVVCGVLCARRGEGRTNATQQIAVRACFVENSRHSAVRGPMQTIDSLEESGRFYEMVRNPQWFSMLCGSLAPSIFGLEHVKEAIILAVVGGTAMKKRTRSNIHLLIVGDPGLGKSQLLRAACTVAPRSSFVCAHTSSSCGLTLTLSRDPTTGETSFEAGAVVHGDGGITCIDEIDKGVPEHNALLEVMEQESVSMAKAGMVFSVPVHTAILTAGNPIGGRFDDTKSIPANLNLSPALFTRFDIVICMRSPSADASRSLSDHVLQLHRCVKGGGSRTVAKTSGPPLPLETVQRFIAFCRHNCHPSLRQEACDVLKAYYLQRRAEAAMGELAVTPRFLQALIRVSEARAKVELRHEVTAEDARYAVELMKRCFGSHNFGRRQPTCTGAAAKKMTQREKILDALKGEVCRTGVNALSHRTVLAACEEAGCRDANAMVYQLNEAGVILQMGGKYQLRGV

For this experiment, the target named is TbMCM-BP-PTP (Trypanosoma brucei) (UniProt Q57V33). Kind of experiment: affinity purification with mass spectrometry; tandem affinity purification (IgG, TEV elution, anti-ProtC) of TbMCM-BP-PTP from crude extract of PF T. brucei; whole gel lane of the final eluate analysed by LC-MS/MS.
Turning to MCM4 (from UniProt Q382V6), the binding result is recorded as “binds”.

With MCM6 (from UniProt Q383B6), the binding entry is recorded as “binds”.

As for MCM8 (from UniProt Q389T6), the binding entry is listed as “binds”.

Source of the values: PMC3581582.
